Data reported in PubChem BioAssay AID200 (DTP/NCI, 2004).
The list does not hold the whole screen: it is rich in T/C values a quarter to a half above the control, in often repeated tests (any T/C) and in doses without a T/C. Further doses and runs are listed elsewhere. T/C: endpoint of the treated group in % of that of the vehicle group. Some doses have a count of surviving animals in place of a T/C: the source holds a T/C of zero for them, seemingly a mark for toxic or unscored doses. Some doses without a T/C left all or most animals alive at the check, yet need not have been tolerated: the source hardly ever lists a survival T/C far under the control, and the zero likely stands for such cases as well. Survivors were counted at the toxicity check, usually on the fifth day, unless a day is given; later deaths do not show. Schedule codes are those of the source, taken here to give the interval after Q, in days (D) or hours (H), and the number of doses after X. Some doses were run more than once; the values are given in rising order. Where survival is the endpoint, the PubChem record calls one and a half times the control and up active, and a quarter to a half above the control has no call in these data; cut-offs in other NCI protocols can differ. Some T/C values are followed by the survivors on the day toxicity was checked, most often the fifth; without a count, all were alive then.

Test system: B6C3F1 mice, B16 melanoma ip, median survival T/C
Assay: NCI In Vivo Anticancer Drug Screen. Data for tumor model B16 Melanoma (intraperitoneal) in B6C3F1 mice
Settings: T/C endpoint: median survival time, higher T/C = longer survival
In short: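 Mice bearing transplanted tumor were dosed with compound or vehicle, and survival was recorded. Activity is expressed as the treated-group measurement (T) divided by the vehicle control measurement (C).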

[1] = dose: 25.0 mg/kg/injection, schedule: Q01DX009 (ip), vehicle: Klucel (hydroxypropylcellulose) (HPC)
[2] = dose: 50.0 mg/kg/injection, schedule: Q01DX009 (ip), vehicle: Klucel (hydroxypropylcellulose) (HPC)
[3] = dose: 12.5 mg/kg/injection, schedule: Q01DX009 (ip), vehicle: Klucel (hydroxypropylcellulose) (HPC)
[4] = dose: 100.0 mg/kg/injection, schedule: Q01DX009 (ip), vehicle: Klucel (hydroxypropylcellulose) (HPC)
[5] = dose: 200.0 mg/kg/injection, schedule: Q01DX009 (ip), vehicle: Klucel (hydroxypropylcellulose) (HPC)
[6] = dose: 12.5 mg/kg/injection, schedule: Q01DX009 (ip), vehicle: water
[7] = dose: 12.5 mg/kg/injection, schedule: Q01DX009 (ip), vehicle: saline
[8] = dose: 50.0 mg/kg/injection, schedule: Q01DX009 (ip), vehicle: saline
[9] = dose: 69.45 mg/kg/injection, schedule: Q01DX009 (ip), vehicle: saline
[10] = dose: 200.0 mg/kg/injection, schedule: Q01DX009 (ip), vehicle: saline with Tween-80
[11] = dose: 400.0 mg/kg/injection, schedule: Q01DX009 (ip), vehicle: saline with Tween-80
[12] = dose: 3.0 mg/kg/injection, schedule: Q01DX009 (ip), vehicle: Klucel (hydroxypropylcellulose) (HPC)

**Q.** What does the source list for `COc1cccc2c1C(=O)c1c(O)c3c(c(O)c1C2=O)C[C@@](O)(C(C)=O)C[C@@H]3OC1CC(NC(=O)C(N)CC(C)C)C(O)C(C)O1` (stereo partly drawn)?
**A.** survivor count (dose: 25.0 mg/kg/injection, schedule: Q01DX001 (ip), vehicle: saline): 10 of 10; survivor count (dose: 50.0 mg/kg/injection, schedule: Q01DX001 (ip), vehicle: saline): 9 of 10; survivor count (dose: 100.0 mg/kg/injection, schedule: Q01DX001 (ip), vehicle: saline): 5 of 10; survivor count (dose: 200.0 mg/kg/injection, schedule: Q01DX001 (ip), vehicle: saline): 0 of 10

**Q.** With `O=NN(CCF)C(=O)NC1CCCCC1` as the compound, how does the survivor count [1] read?
**A.** 6 of 10

**Q.** What about the survivor count [2] of the same compound?
**A.** 7 of 10

**Q.** What about the survivor count (dose: 200.0 mg/kg/injection, schedule: Q01DX001 (ip), vehicle: Klucel (hydroxypropylcellulose) (HPC)) of the same compound?
**A.** 2 of 10

**Q.** `CC(C)(C)OC(=O)NC(CCCCNC(=O)C(F)(F)F)C(=O)O` (stereo not drawn) was tested. Which survivor count [3] did it give?
**A.** 10 of 10

**Q.** What about the survivor count [2] of the same compound?
**A.** 10 of 10

**Q.** And the survivor count [4]?
**A.** 10 of 10

**Q.** And the survivor count [5]?
**A.** 10 of 10

**Q.** `COC(=O)[C@@]12OC[C@]34[C@H]([C@@H](O)[C@@H]1O)[C@@]1(C)CC(=O)C(O)=C(C)[C@@H]1C[C@H]3OC(=O)[C@H](OC(=O)CC(C)C)[C@@H]24` was tested. Which T/C (dose: 0.25 mg/kg/injection, schedule: Q01DX009 (ip), vehicle: saline + alcohol) did it give?
**A.** 141 and 142 % of control

**Q.** And the T/C (dose: 0.5 mg/kg/injection, schedule: Q01DX009 (ip), vehicle: saline + alcohol)?
**A.** 134 and 147 % of control

**Q.** What about the T/C (dose: 2.0 mg/kg/injection, schedule: Q01DX009 (ip), vehicle: saline + alcohol) of the same compound?
**A.** 134 % of control

**Q.** And the survivor count (dose: 4.0 mg/kg/injection, schedule: Q01DX009 (ip), vehicle: saline + alcohol)?
**A.** 0 of 10 and 2 of 10

**Q.** With `O=NNc1ccccn1` as the compound, how does the T/C (dose: 6.25 mg/kg/injection, schedule: Q01DX009 (ip), vehicle: water) read?
**A.** 131, 133, 141 % of control

**Q.** And the T/C [6]?
**A.** 141 and 148 % of control

**Q.** And the survivor count [6]?
**A.** 10 of 10

**Q.** And the survivor count (dose: 25.0 mg/kg/injection, schedule: Q01DX009 (ip), vehicle: water)?
**A.** 10 of 10

**Q.** What does the source list for `CS(=O)(=O)CS(=O)(=O)OCCF`?
**A.** T/C [7]: 128 % of control; survivor count [8]: 5 of 10; T/C [9]: 147 % of control; survivor count [9]: 7 of 10; survivor count (dose: 115.75 mg/kg/injection, schedule: Q01DX009 (ip), vehicle: saline): 4 of 10

**Q.** `Oc1cccc2ccccc12` was tested. Which survivor count (dose: 400.0 mg/kg/injection, schedule: Q01DX009 (sc), vehicle: other) did it give?
**A.** 0 of 10

**Q.** How did the survivor count [8] turn out when `CSC(SC)=C1C(=O)NC(=O)NC1=O` was run?
**A.** 5 of 10

**Q.** With `COc1ccc(OC)c(/C=C/c2ccnc3ccccc23)c1` as the compound, how does the T/C [10] read?
**A.** 125 % of control [8 of 10 alive]

**Q.** And the T/C (dose: 400.0 mg/kg/injection, schedule: Q01DX009 (ip), vehicle: saline sonified)?
**A.** 132 % of control

**Q.** And the survivor count [11]?
**A.** 4 of 10

**Q.** What about the survivor count (dose: 800.0 mg/kg/injection, schedule: Q01DX009 (ip), vehicle: saline with Tween-80) of the same compound?
**A.** 3 of 10

**Q.** Which results are given for `O=C(Nc1cc(Cl)ccc1C(=O)O)c1cccc(C[n+]2ccccc2)c1`?
**A.** survivor count [10]: 10 of 10; survivor count [11]: 10 of 10

**Q.** How did the T/C (dose: 200.0 mg/kg/injection, schedule: Q01DX009 (ip), vehicle: saline + Tween-80 + alcohol) turn out when `c1cc2c(c(CC3CO3)c1CC1CO1)OCCOCCOCCOCCO2` (stereo not drawn) was run?
**A.** 145 % of control

**Q.** And the survivor count (dose: 400.0 mg/kg/injection, schedule: Q01DX009 (ip), vehicle: saline + Tween-80 + alcohol)?
**A.** 0 of 10

**Q.** And the survivor count (dose: 400.0 mg/kg/injection, schedule: Q01DX009 (ip), vehicle: saline + alcohol)?
**A.** 2 of 10

**Q.** `C=Cc1cc(OC)c2c(c1)c(=O)oc1c2cc(OC)c2c(O)ccc(C3OC(C)C(O)C(C)(O)C3O)c21` (stereo not drawn) was tested. Which T/C (dose: 20.0 mg/kg/injection, schedule: Q01DX009 (ip), vehicle: DMSO) did it give?
**A.** 139 % of control

**Q.** Which T/C (dose: 2.0 mg/kg/injection, schedule: Q01DX009 (ip), vehicle: other) does the source give for `CCCCCC(O)C1C(=O)OC(C)C(O)/C=C/C=C/C=C/C=C/C=C(\C)C(O)C(O)C(O)CC(O)CC(O)CC(O)CC(O)CC1O` (stereo not drawn) here?
**A.** 136 % of control

**Q.** And the survivor count (dose: 6.25 mg/kg/injection, schedule: Q01DX009 (ip), vehicle: saline)?
**A.** 9 of 9

**Q.** Which T/C [7] does the source give for `CCCCCCCCCCCCCCCC(=O)Nc1ccn(C2OC(CO)C(O)C2O)c(=O)n1` (stereo not drawn) here?
**A.** 131 % of control

**Q.** And the survivor count (dose: 100.0 mg/kg/injection, schedule: Q01DX009 (ip), vehicle: saline)?
**A.** 10 of 10

**Q.** For `O=C(O)C1CC(c2ccccc2)=NN1c1ccccc1` (stereo not drawn), which survivor count (dose: 400.0 mg/kg/injection, schedule: Q01DX009 (ip), vehicle: water) is on record?
**A.** 1 of 10

**Q.** `C[C@H](N)C(=O)N[C@@H]1[C@H]2C(=C(O)C[C@@H](O)[C@@H]2O)C(=O)O[C@]1(C)C(Cl)Cl` was tested. Which T/C [12] did it give?
**A.** 124 % of control

**Q.** And the survivor count [12]?
**A.** 7 of 10, 10 of 10, 9 of 9

**Q.** What about the survivor count (dose: 6.0 mg/kg/injection, schedule: Q01DX009 (ip), vehicle: Klucel (hydroxypropylcellulose) (HPC)) of the same compound?
**A.** 4 of 10 and 8 of 10

**Q.** And the survivor count (dose: 6.25 mg/kg/injection, schedule: Q01DX009 (ip), vehicle: Klucel (hydroxypropylcellulose) (HPC))?
**A.** 0 of 10

**Q.** And the survivor count [3]?
**A.** 0 of 10

**Q.** And the survivor count [1]?
**A.** 0 of 10

**Q.** What about the survivor count [2] of the same compound?
**A.** 0 of 10

**Q.** And the survivor count [4]?
**A.** 0 of 10

**Q.** Which survivor count [5] does the source give for `C[C@]12CC[C@@H]3c4ccc(OC(=O)Cc5ccc(N(CCCl)CCCl)cc5)cc4CC[C@H]3[C@@H]1CC[C@@H]2OC(=O)Cc1ccc(N(CCCl)CCCl)cc1` here?
**A.** 10 of 10

**Q.** Which T/C (dose: 8.0 mg/kg/injection, schedule: Q01DX009 (ip), vehicle: Klucel (hydroxypropylcellulose) (HPC)) does the source give for `NC(CSC(c1ccccc1)(c1ccccc1)c1ccccc1)C(=O)O` (stereo not drawn) here?
**A.** 128 % of control

**Q.** And the survivor count (dose: 32.0 mg/kg/injection, schedule: Q01DX009 (ip), vehicle: Klucel (hydroxypropylcellulose) (HPC))?
**A.** 10 of 10

**Q.** What about the survivor count (dose: 64.0 mg/kg/injection, schedule: Q01DX009 (ip), vehicle: Klucel (hydroxypropylcellulose) (HPC)) of the same compound?
**A.** 10 of 10

**Q.** What about the survivor count (dose: 128.0 mg/kg/injection, schedule: Q01DX009 (ip), vehicle: Klucel (hydroxypropylcellulose) (HPC)) of the same compound?
**A.** 9 of 10

**Q.** Which T/C (dose: 50.0 mg/kg/injection, schedule: Q01DX009 (ip), vehicle: suspension in saline) does the source give for `O=C(O)C(CSC(c1ccccc1)(c1ccccc1)c1ccccc1)N=Cc1cccs1` (stereo not drawn) here?
**A.** 127 % of control

**Q.** And the survivor count (dose: 100.0 mg/kg/injection, schedule: Q01DX009 (ip), vehicle: suspension in saline)?
**A.** 8 of 10

**Q.** What about the survivor count (dose: 200.0 mg/kg/injection, schedule: Q01DX009 (ip), vehicle: suspension in saline) of the same compound?
**A.** 6 of 10

**Q.** What about the survivor count (dose: 400.0 mg/kg/injection, schedule: Q01DX009 (ip), vehicle: suspension in saline) of the same compound?
**A.** 0 of 10

**Q.** What does the source list for `Cc1cc(NC(=S)SCc2ccc3c(c2)OCO3)ccc1Cl`?
**A.** survivor count [5]: 5 of 10; survivor count (dose: 400.0 mg/kg/injection, schedule: Q01DX009 (ip), vehicle: Klucel (hydroxypropylcellulose) (HPC)): 0 of 10

**Q.** How did the survivor count (dose: 11.0 mg/kg/injection, schedule: Q01DX009 (ip), vehicle: water) turn out when `O=C1c2c(O)cccc2-c2nn(CCNCCO)c3ccc(NCCNCCO)c1c23` was run?
**A.** 10 of 10

**Q.** What about the survivor count (dose: 22.0 mg/kg/injection, schedule: Q01DX009 (ip), vehicle: water) of the same compound?
**A.** 10 of 10

**Q.** What about the survivor count (dose: 44.0 mg/kg/injection, schedule: Q01DX009 (ip), vehicle: water) of the same compound?
**A.** 7 of 8
